From PubChem BioAssay AID1508600 (Functional Genomics Laboratory (NCATS/FGL), 2020)
Among all 53,000 sequences or so, about 3,700 (7%) were called active.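 How the source made its calls: active means gene knockdowns whose robust z-score for IL-1 alpha signal is at least 2 or at most -2, so actives lie on both sides; inactive means the rest.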 The list shows a part of the results.

Assay: Components of the Cytosolic LPS Sensing Pathway: Gene Identification via Genome-wide siRNA Screen
Settings: RAW264.7 macrophages, IL-1a HTRF, actives lie on both sides, screened at 100 nM (by protocol), cells primed 5 h with Pam3CSK4 first
From the text: Non-canonical inflammasome activation by cytosolic LPS is a critical component of the host response to Gram-negative bacterial infection, however we lack a comprehensive understanding of the cellular processes that control this pathway. Here we describe a genome-wide siRNA screen to identify genes regulating the mouse macrophage IL-1 alpha response to cytosolic LPS.
RAW264.7 cells were maintained in complete DMEM media, comprising DMEM with 4.5 g/L glucose, 10% FBS (Gemini Bio-Products, West Sacramento, CA), 2 mM Glutamine (Lonza) and 20 mM HEPES (Lonza), hereafter complete DMEM.
The RNAi screen was conducted in 384-well format using the Ambion Silencer Mouse Genome siRNA Library (#4391425), which consists of three unique, nonoverlapping, nonpooled siRNAs for each of 17,000 gene targets. siRNA reagents ([…]) were stamped into 384-well white flat-bottom microplates (Corning, 3570) using a Velocity11 VPrep liquid handling system (Agilent) integrated into a BioCel robotic platform (Agilent) in columns 1-22, leaving columns 23-24 empty for negative (Ambion, Negative control #1) and positive (mouse Casp4) controls, respectively. The median value of each plate's negative control column was used to normalize sample wells, and the positive control was used to assess transfection efficiency and assay performance.
Lipofectamine RNAiMAX Transfection Reagent ([…]; Invitrogen) was added in […] serum-free, antibiotic-free media to plate wells using a Thermo Scientific Matrix WellMate and Microplate Stacker. Plates were incubated for 45 min at room temperature to allow for the sufficient formation of siRNA-lipid complexes. Cells were seeded at a density of 1x10^4 cells per well in 20 microL media containing 20% (vol/vol) FBS without antibiotics. The final concentration of siRNA in each well was 100 nM. Cells were cultured for 48h at 37 degrees C in 5% CO2 before addition of […] of TLR ligand Pam3CSK4 for 5 hours. The medium was then removed, replaced with […] growth media and cell were transfected with […] of LipidA and TransIT-TKO (Mirus) for 24 hour. At the end of the LipidA treatment, […] of supernatant was transferred to a 384 Greiner Bio-one non-binding low volume plate and […] of IL-1a HTRF reagent (Cisbio, 62MIL1APEH) was added and incubated at room temperature overnight. The plates were read on an EnVision plate reader (PerkinElmer). Cell viability was measured by adding 20ul Cell Titer Glo to the original plate and running a luminescence read on the EnVision. The quantified IL-1a signal for each siRNA gene-targeted well was divided by the median of the negative control wells and multiplied by 100 to achieve a negative control normalized value for each well/siRNA. This normalized value was then used to generate a robust z-score by first taking the log of each value and then by subtracting the median and dividing by the […].

Row | Sequence | z-score
1 | GGCGACAUGAAAGAAGGCATT against Klk6 | active: 2.61
2 | GGACUUCUACACCUCGAAATT against Amz2 | inactive: -1.05
3 | GCAUCACUGUCUAAACUUGTT against Pgk2 | inactive: -0.324
4 | GGUUGGAUACUCGUCUUCATT against Olfr421-ps1 | inactive: 1.16
5 | GUUGACUGUACCCGAUACATT against Mxd3 | inactive: -0.0552
6 | GCGGAUUUAGUGGCUGGCUTT against Opn5 | inactive: 0.214
7 | CCAUUUUGAAGCAUAGUACTT against Uba6 | inactive: -0.142
8 | GGUAAUCACAUCCCAGGUGTT against Olfr370 | inactive: 0.144
9 | GUGAUUGCCAAGAAGUUCUTT against Olfr1033 | inactive: 1.82
10 | CCUUAUAGUCCAGUAUUUUTT against Slf2 | active: 2.71
11 | GCUCUACGAUGCAGUUUUUTT against Trp53i11 | inactive: -0.657
12 | GGAAAAGAGCAAACUUAUUTT against Shc3 | inactive: 0.37
13 | GGACUUUCUGAUGGACUUGTT against Sapcd1 | inactive: 1.59
14 | GGUGUAAGUCGGUAUAUUUTT against Cdkn2aip | inactive: 0.572
15 | GGAUAAACCCUACGUUCUATT against Slc44a4 | inactive: 0.658
16 | CCCUUUGUAGUUACUAAACTT against Zwint | inactive: 1.26
17 | GGUCUGAAGACAUCCUAGUTT against Pabpc4 | inactive: 1.83
18 | GGUUUUUAUCGACACUAUCTT against Chrna1 | inactive: 1.06
19 | GGGAGAGGACGACAUUUACTT against Otx2 | inactive: 0.645
20 | GGUGGUUCCCAAUUCACCUTT against Htra3 | inactive: -0.903
21 | CCGUACAUCGAGAAAUACATT against Hal | active: 2.36
22 | GGUGUUGAACGAGUGGAUCTT against Gtf3c6 | inactive: 0.481
23 | GCAAGCUGAGCAUUGAUGATT against Csk | inactive: 0.0106
24 | GGAGUACGUGCUAGAUAAGTT against Tram1l1 | inactive: -0.302
25 | CCGGGUUCUUUGAAGUGACTT against Selenow | inactive: -1.04
26 | GGAUGUGACUUCGAGAGCATT against Cxcr4 | inactive: -0.491
27 | GGAAUACCUCUACUGACAGTT against Mok | inactive: -1.37

Row | Sequence | z-score
28 | GGUUGACGAAAUGACUAUATT against Adh4 | inactive: -0.105
29 | GGAACAUGUUAAAAACCCUTT against Ubtf | inactive: -1.1
30 | GCGCAUGCAACAGAAGUAUTT against Pde4dip | inactive: -1.4
31 | CGGCUAAGUUGUGCGAUGUTT against Iffo2 | inactive: 0.159
32 | GGACACUACGUGCUCAGUATT against Tcl1b5 | inactive: -0.645
33 | CCGCUACCUUAAGCACCUATT against Terf2ip | inactive: 0.231
34 | GCCCUUGGCAUUACUGAGATT against Serpine2 | inactive: 1.56
35 | GGAAAUCUCAGAAAUCAAATT against Pmf1 | inactive: -1.15
36 | CGAGAUGUCCCAGAAUCAUTT against Wdr75 | active: -2.26
37 | GCUUGCUCUCUCAGUAGUATT against Olfr133 | inactive: 0.872
38 | GUCAAAAUGACCAAAGAUGTT against Acot2 | inactive: -0.421
39 | CGGCAUCGUCAGCUAUUAATT against Pip5k1b | inactive: 0.482
40 | GCCGCUGUCAAUAAAUGACTT against Phb | inactive: -0.0384
41 | GGUAGAAAAGCUUCUGAAATT against Ap1g1 | inactive: 0.349
42 | GGAUUAAUCUGUGGAACUUTT against Ppp2r2b | inactive: -0.111
43 | GGGAGGAAAUUAAAUUUCATT against Hif1an | inactive: -0.223
44 | GCCUCAGAAUACCAGCUCATT against Gnat1 | inactive: -0.186
45 | CCUCAAAAAUGGGUACGGUTT against Srsf6 | inactive: 1.27
46 | GGACAUUUUAAUGUGCUCATT against Erlin2 | inactive: 0.0602
47 | GGAUAGCUAUGAACGUAGCTT against Lrrc14b | inactive: 1.05
48 | CCUCCUUUUUUCUCUGUCUTT against Ugt1a9 | active: -2.79
49 | GGAGUGUAGUAAAUGUACCTT against Ppp1r13b | active: 3.97
50 | CGUGAAAAUAGAAAGGUAATT against Rfk | inactive: 0.0645
51 | GGGAGAAUGUUUUUCUUACTT against Vsig8 | inactive: -0.956
52 | CCACUAACAGCUCAUGUCATT against Rpe65 | inactive: -0.152
53 | GGAAGCUGCUUUUCUAAAUTT against Il7 | active: 2.92
54 | GGGAAUUUUGAAAAGGCUGTT against Nphp3 | active: 2.12

From entry 26 to 38, as listed above:
Row | Sequence | z-score
26 | GGAUGUGACUUCGAGAGCATT against Cxcr4 | inactive: -0.491
27 | GGAAUACCUCUACUGACAGTT against Mok | inactive: -1.37
28 | GGUUGACGAAAUGACUAUATT against Adh4 | inactive: -0.105
29 | GGAACAUGUUAAAAACCCUTT against Ubtf | inactive: -1.1
30 | GCGCAUGCAACAGAAGUAUTT against Pde4dip | inactive: -1.4
31 | CGGCUAAGUUGUGCGAUGUTT against Iffo2 | inactive: 0.159
32 | GGACACUACGUGCUCAGUATT against Tcl1b5 | inactive: -0.645
33 | CCGCUACCUUAAGCACCUATT against Terf2ip | inactive: 0.231
34 | GCCCUUGGCAUUACUGAGATT against Serpine2 | inactive: 1.56
35 | GGAAAUCUCAGAAAUCAAATT against Pmf1 | inactive: -1.15
36 | CGAGAUGUCCCAGAAUCAUTT against Wdr75 | active: -2.26
37 | GCUUGCUCUCUCAGUAGUATT against Olfr133 | inactive: 0.872
38 | GUCAAAAUGACCAAAGAUGTT against Acot2 | inactive: -0.421
